Source: patent publication JP2011219380A
These are yes or no findings as the source states them, for the method shown. Some entries that bind do so weakly or less than the wild type.

Amino acid sequences for entries named in this document (tags omitted). A change or cut given only in a name is not applied to a line headed by its entry.
UniProt O43915: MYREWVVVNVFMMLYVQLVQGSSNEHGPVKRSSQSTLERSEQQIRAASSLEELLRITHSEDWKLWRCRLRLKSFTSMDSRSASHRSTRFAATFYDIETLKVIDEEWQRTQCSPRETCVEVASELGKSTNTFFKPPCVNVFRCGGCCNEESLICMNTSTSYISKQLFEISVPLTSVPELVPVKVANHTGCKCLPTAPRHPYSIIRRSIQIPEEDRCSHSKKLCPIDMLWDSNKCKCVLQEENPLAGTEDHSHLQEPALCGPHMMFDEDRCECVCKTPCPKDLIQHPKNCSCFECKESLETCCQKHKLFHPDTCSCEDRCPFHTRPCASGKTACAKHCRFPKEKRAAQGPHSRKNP

Experiments:
[1] = biological target: 成熟型ヒトVEGF-D(Hisタッグ付加、二量体、参考例3) (human) (UniProt O43915); test: competition cell ELISA, antibody titrated against 2.5 ug/mL human VEGF-D on human VEGFR-3 CHO cells
[2] = biological target: 成熟型カニクイザルVEGF-D(Hisタッグ付加、二量体、参考例3) (cynomolgus monkey); test: competition cell ELISA, antibody titrated against 2.5 ug/mL cynomolgus VEGF-D on cynomolgus VEGFR-3 CHO cells

B1: キメラVE48抗体 (antibody, human IgG1, kappa, V domains shown)
VH: QVTLKESGPGILQPSQTLSLTCSFSGFSLSTYGMGVGWIRQPSGKGLEWLANIWWNDDKYYNPVLRSRLTISKDTSNNQVFLKISIVDTADTATYYCVQVTNPFVFWGQGTLVTVSA
VL: DVVMTQTPLSLPVSLGDQASISCRSSQSLVHNNGNTYLHWYLQKPGQSPKLLIYKVTNRFSGVPDRFSGSGSGTDFTLKISRVEAEDLGVYFCSQSTHVPWTFGGGTKLEIER
In the case of B1, the binding [1] is reported as “binds” and the binding [2] is reported as “binds”.
